Test results: patent US20050266513A1
No constants are given. Whether binding was seen depends on the method and setting. For some assays here: In cells and extracts the contact can be indirect. Some binding calls cover weakened binding; strength is not graded here.

Protein sequences, listed by entry. Tags and fused reporters are not part of them. Lines headed by an entry give the natural chain unless they say otherwise; changes in a name come on top.
UniProt Q7Z6Z7: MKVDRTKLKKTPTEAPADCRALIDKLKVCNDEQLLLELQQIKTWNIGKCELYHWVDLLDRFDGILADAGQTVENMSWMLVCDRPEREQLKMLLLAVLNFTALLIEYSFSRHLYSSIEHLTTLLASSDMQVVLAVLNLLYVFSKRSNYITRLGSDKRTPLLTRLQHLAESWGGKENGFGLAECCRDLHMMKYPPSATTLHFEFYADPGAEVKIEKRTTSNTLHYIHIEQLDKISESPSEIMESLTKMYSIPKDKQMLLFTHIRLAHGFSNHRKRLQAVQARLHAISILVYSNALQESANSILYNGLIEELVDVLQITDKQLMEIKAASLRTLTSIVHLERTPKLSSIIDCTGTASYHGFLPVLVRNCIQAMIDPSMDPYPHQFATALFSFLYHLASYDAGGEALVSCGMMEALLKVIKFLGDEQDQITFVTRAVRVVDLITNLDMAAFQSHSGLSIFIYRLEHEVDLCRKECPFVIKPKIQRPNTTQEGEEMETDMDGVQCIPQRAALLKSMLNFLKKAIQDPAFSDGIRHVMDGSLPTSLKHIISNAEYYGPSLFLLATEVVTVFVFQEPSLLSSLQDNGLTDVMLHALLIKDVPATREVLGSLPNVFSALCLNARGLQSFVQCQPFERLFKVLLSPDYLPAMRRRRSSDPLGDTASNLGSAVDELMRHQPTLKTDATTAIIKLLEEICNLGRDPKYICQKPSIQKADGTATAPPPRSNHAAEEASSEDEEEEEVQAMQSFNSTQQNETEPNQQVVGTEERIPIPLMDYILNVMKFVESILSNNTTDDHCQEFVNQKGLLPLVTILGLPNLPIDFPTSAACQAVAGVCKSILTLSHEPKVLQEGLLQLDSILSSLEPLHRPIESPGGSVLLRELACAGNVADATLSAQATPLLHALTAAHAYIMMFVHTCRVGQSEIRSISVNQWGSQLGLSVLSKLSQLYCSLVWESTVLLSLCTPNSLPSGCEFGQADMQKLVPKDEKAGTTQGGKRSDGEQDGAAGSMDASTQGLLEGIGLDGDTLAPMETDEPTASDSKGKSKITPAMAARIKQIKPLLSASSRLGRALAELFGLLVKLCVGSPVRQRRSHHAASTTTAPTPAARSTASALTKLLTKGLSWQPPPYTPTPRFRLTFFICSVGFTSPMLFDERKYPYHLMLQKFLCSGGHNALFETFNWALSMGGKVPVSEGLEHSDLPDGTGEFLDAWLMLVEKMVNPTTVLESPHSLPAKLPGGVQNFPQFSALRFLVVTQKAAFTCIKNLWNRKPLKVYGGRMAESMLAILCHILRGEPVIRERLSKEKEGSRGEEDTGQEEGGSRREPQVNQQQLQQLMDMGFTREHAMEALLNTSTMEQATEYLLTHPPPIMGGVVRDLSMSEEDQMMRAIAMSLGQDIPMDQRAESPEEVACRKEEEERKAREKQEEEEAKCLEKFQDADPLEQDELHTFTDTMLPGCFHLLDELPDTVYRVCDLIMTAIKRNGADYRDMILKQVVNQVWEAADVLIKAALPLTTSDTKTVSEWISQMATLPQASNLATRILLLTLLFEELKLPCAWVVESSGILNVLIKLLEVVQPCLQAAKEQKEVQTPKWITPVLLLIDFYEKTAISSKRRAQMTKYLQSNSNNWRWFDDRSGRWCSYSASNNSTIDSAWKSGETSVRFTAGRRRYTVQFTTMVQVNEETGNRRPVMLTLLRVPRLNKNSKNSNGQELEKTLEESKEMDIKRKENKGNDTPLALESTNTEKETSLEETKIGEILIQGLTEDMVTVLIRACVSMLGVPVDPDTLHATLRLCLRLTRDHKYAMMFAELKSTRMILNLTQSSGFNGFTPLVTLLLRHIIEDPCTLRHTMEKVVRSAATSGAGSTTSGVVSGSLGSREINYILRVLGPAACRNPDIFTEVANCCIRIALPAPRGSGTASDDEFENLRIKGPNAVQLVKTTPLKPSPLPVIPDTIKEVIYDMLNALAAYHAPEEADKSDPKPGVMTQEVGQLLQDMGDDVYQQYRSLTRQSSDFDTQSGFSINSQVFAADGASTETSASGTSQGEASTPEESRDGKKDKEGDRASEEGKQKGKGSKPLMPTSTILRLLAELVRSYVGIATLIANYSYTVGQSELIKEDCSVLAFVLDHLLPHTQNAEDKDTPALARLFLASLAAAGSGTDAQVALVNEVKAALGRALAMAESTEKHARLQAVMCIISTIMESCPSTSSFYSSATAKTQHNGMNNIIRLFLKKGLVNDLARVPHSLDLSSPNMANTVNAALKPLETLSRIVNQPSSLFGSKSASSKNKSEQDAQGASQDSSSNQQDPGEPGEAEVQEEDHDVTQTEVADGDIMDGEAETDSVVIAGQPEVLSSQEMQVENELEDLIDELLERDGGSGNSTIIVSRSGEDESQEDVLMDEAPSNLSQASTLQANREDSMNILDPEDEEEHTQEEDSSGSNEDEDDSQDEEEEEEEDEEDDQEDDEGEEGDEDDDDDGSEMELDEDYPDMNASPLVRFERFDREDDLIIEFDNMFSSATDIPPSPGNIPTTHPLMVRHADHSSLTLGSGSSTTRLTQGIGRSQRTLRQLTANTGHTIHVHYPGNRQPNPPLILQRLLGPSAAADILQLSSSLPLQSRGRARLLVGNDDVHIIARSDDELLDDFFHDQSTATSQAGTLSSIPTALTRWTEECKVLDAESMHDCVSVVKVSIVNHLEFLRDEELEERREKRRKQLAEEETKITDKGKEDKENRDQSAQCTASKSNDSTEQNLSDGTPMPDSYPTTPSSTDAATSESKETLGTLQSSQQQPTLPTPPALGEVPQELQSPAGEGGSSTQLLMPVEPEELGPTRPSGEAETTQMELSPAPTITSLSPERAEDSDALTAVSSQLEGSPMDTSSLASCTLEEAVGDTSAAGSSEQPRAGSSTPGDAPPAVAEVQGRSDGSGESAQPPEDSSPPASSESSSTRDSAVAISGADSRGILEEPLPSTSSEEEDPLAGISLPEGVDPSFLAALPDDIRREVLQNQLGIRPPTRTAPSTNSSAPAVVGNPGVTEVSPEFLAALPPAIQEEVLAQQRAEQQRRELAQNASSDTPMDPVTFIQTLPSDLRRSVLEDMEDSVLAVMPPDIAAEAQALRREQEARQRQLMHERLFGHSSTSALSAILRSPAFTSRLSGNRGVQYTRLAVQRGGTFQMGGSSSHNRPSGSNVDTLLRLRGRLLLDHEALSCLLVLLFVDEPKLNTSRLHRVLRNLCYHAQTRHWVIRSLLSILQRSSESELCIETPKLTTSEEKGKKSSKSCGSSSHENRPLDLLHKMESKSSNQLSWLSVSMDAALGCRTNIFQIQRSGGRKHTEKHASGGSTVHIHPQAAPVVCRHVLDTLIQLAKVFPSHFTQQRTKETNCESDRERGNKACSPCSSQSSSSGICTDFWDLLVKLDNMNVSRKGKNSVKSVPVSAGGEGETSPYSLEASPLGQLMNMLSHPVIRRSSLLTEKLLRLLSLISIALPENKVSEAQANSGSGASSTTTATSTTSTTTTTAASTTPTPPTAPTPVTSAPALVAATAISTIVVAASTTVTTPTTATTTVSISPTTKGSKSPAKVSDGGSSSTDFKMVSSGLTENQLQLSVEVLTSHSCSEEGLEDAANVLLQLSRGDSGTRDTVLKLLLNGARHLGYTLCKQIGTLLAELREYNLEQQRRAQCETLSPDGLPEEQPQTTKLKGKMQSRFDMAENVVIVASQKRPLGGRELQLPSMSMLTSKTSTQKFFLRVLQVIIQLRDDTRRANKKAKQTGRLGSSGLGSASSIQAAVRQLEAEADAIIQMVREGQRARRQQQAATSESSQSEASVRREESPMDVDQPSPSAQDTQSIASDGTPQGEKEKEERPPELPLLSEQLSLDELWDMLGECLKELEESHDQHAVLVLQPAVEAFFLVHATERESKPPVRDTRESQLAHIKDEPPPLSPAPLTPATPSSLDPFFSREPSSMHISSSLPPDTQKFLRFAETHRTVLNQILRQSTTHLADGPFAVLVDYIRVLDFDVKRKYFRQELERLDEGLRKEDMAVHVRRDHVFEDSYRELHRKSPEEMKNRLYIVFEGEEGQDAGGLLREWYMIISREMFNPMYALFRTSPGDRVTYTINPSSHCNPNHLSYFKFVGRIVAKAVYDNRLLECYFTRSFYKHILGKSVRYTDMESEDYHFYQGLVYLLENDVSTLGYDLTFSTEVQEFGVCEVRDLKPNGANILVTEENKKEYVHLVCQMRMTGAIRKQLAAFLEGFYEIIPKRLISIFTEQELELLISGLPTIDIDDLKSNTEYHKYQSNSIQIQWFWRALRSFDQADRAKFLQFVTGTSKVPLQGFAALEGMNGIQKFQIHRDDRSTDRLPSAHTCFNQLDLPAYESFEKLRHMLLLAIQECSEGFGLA

Tests used:
[1] = molecular target: HectH9 (full-length HECT-domain E3-ligase) (human) (UniProt Q7Z6Z7); experiment: co-immunoprecipitation from transiently transfected HeLa cells, anti-Miz1 blot
[2] = molecular target: HectH9 (full-length HECT-domain E3-ligase) (human) (UniProt Q7Z6Z7); experiment: in vitro translated 35S-labelled proteins mixed, anti-HectH9 immunoprecipitation
[3] = molecular target: HectH9 (full-length HECT-domain E3-ligase) (human) (UniProt Q7Z6Z7); experiment: figure description
[4] = molecular target: HectH9 (full-length HECT-domain E3-ligase) (human) (UniProt Q7Z6Z7); experiment: co-immunoprecipitation from transfected HeLa cells
[5] = molecular target: HectH9 (full-length HECT-domain E3-ligase) (human) (UniProt Q7Z6Z7); experiment: in vitro translated 35S-labelled proteins mixed, immunoprecipitation, autoradiogram

Measured: binding

B1: Miz1 (protein, UniProt Q13105 1-803, looked up)
chain: MDFPQHSQHVLEQLNQQRQLGLLCDCTFVVDGVHFKAHKAVLAACSEYFKMLFVDQKDVVHLDISNAAGLGQVLEFMYTAKLSLSPENVDDVLAVATFLQMQDIITACHALKSLAEPATSPGGNAEALATEGGDKRAKEEKVATSTLSRLEQAGRSTPIGPSRDLKEERGGQAQSAASGAEQTEKADAPREPPPVELKPDPTSGMAAAEAEAALSESSEQEMEVEPARKGEEEQKEQEEQEEEGAGPAEVKEEGSQLENGEAPEENENEESAGTDSGQELGSEARGLRSGTYGDRTESKAYGSVIHKCEDCGKEFTHTGNFKRHIRIHTGEKPFSCRECSKAFSDPAACKAHEKTHSPLKPYGCEECGKSYRLISLLNLHKKRHSGEARYRCEDCGKLFTTSGNLKRHQLVHSGEKPYQCDYCGRSFSDPTSKMRHLETHDTDKEHKCPHCDKKFNQVGNLKAHLKIHIADGPLKCRECGKQFTTSGNLKRHLRIHSGEKPYVCIHCQRQFADPGALQRHVRIHTGEKPCQCVMCGKAFTQASSLIAHVRQHTGEKPYVCERCGKRFVQSSQLANHIRHHDNIRPHKCSVCSKAFVNVGDLSKHIIIHTGEKPYLCDKCGRGFNRVDNLRSHVKTVHQGKAGIKILEPEEGSEVSVVTVDDMVTLATEALAATAVTQLTVVPVGAAVTADETEVLKAEISKAVKQVQEEDPNTHILYACDSCGDKFLDANSLAQHVRIHTAQALVMFQTDADFYQQYGPGGTWPAGQVLQAGELVFRPRDGAEGQPALAETSPTAPECPPPAE
binds: all assays above
